In assay [1] the target is PCDHGA9 (3×Flag-hPCDHGA9), expressed in 293T cells (human) (UniProt Q9Y5G4). In words: co-IP; exogenous co-IP in 293T cells; RIPA lysates precipitated with the indicated antibodies on protein A/G beads overnight, western blot; both orientations. For orientation: Immunoblotting shows a protein as a band on a membrane.
In assay [2] the target is PCDHGA9, ectopically expressed in SGC-7901 cells (SGC-7901-PCDHGA9) (human) (UniProt Q9Y5G4). The experiment in a line: co-IP; immunoprecipitation of β-catenin with PCDHGA9 from PCDHGA9-overexpressing SGC-7901 and negative control cells, western blot; cells with or without 10 ng/ml TGF-β1 for 48 h.
The target of assay [3] is PCDHGA9, endogenous in SGC-7901 negative control cells (human (endogenous in SGC-7901)) (UniProt Q9Y5G4). The assay is described as above.
Assay [4] concerns the target β-catenin (pHis-CMV4-hβ-catenin), expressed in 293T cells (human) (UniProt P35222). The experiment in a line: co-IP; exogenous co-IP in 293T cells; RIPA lysates precipitated with the indicated antibodies on protein A/G beads overnight, western blot; both orientations.

Chains of the proteins cited; added tags and fusions are not shown. Residues count along the entry.
UniProt Q9Y5G4, residues 29-932: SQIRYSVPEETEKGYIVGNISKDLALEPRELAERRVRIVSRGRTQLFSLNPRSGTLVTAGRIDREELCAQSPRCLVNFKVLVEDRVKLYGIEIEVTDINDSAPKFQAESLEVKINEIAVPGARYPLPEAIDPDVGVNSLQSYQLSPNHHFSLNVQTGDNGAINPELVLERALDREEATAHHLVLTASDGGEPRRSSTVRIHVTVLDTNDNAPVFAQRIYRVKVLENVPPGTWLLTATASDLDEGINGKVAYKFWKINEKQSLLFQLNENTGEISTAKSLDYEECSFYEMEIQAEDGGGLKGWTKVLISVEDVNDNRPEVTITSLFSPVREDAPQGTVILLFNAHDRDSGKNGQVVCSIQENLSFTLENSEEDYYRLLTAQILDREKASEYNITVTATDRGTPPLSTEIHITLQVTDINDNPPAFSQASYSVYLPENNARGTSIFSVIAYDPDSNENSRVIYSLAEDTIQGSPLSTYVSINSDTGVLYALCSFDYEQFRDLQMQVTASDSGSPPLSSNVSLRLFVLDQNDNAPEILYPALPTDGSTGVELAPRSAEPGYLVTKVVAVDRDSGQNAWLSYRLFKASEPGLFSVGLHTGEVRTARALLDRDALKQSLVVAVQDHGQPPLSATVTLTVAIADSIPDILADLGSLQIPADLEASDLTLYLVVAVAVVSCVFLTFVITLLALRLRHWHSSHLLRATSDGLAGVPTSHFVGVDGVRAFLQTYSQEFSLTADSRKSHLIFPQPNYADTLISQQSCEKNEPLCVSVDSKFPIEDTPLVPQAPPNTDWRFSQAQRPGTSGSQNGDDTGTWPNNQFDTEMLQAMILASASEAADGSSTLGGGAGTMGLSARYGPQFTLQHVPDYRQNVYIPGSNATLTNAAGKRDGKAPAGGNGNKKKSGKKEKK
UniProt P35222: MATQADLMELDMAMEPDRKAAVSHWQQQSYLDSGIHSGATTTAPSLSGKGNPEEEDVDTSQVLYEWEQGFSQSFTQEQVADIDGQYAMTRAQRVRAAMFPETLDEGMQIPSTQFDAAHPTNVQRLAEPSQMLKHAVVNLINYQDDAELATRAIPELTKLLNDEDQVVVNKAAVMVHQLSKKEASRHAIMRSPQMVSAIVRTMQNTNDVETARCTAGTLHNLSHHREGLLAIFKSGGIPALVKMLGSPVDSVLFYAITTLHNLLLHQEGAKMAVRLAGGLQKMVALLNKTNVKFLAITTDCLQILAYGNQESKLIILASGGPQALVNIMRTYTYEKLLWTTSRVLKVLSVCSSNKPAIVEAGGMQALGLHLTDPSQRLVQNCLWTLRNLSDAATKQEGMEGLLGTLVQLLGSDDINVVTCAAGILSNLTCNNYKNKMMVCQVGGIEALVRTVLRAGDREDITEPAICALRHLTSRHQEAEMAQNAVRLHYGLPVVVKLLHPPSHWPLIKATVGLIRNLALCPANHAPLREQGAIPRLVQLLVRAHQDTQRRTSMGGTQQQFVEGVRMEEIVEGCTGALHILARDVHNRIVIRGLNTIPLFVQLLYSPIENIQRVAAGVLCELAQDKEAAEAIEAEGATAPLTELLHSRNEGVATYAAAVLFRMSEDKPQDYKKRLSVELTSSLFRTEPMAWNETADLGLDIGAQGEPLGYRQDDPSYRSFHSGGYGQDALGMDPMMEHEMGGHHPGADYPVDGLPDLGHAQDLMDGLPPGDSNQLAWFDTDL

These are yes or no findings as the source states them, for the method shown. Binding seen in cells or lysates may run through a third protein. Some entries that bind do so weakly or less than the wild type.

Binding data for three substances are collected here from publication PMC7105466.

Regarding “β-catenin (pHis-CMV4-hβ-catenin), expressed in 293T cells (from UniProt P35222 1-781)”, the binding entry in assay [1] is “binds”.

On to “β-catenin, endogenous in SGC-7901 cells (from UniProt P35222 1-781)”, for which the binding result in assay [2] and in assay [3] was “binds” throughout.

Consider “PCDHGA9 (3×Flag-hPCDHGA9), expressed in 293T cells (from UniProt Q9Y5G4 29-932)”, for which the binding result in assay [4] is recorded as “binds”.
